Measurements as given in publication PMC4053984.
Where cells or extracts were used, other partners may take part. For some assays here: No signal at the amounts used counts as a negative. At least one verdict was read from the data and is not stated in words by the source. The exact form of at least one protein or probe is not confirmed.

Amino acid sequences for entries named in this document (tags omitted). A change or cut given only in a name is not applied to a line headed by its entry.
UniProt Q96EQ9: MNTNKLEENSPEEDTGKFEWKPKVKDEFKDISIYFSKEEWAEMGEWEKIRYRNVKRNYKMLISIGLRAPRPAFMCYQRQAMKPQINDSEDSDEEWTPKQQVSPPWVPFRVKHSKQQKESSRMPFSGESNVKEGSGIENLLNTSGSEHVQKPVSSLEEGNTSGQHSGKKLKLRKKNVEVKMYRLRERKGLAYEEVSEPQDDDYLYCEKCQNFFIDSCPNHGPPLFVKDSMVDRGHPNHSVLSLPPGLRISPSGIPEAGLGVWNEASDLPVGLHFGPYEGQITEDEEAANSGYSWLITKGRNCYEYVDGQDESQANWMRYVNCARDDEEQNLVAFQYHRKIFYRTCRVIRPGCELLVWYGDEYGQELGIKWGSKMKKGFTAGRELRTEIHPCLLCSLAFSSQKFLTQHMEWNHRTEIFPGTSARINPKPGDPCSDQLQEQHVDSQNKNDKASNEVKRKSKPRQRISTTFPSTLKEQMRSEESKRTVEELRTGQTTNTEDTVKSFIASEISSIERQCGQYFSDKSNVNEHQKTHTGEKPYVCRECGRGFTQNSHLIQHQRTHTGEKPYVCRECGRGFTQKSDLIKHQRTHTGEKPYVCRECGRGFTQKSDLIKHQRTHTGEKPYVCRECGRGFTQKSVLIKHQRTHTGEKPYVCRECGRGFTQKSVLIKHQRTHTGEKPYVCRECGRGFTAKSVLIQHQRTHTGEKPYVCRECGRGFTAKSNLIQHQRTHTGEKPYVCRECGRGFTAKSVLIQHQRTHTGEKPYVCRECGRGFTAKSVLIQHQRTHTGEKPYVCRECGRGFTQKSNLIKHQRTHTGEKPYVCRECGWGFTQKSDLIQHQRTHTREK

Experiments:
[1] = biological target: PRDM9Dom2 (Mus musculus (C57BL/6J)) (UniProt Q96EQ9); assay: EMSA competition; conditions: 10 mM Tris pH 7.5, 50 mM KCl, 1 mM DTT, 50 ng/ul poly(dI/dC), 0.05% NP-40, 0.5 pmol labelled dsDNA (printed pmol/l), 3 ul E. coli extract in 20 ul, 40 min; protein in a lysate after overexpression; residues 1-843; protein details: N-terminal His tag (pBAD/HisB)
[2] = system: PRDM9Cst (Mus musculus (CAST/EiJ)); assay: EMSA competition; conditions: 10 mM Tris pH 7.5, 50 mM KCl, 1 mM DTT, 50 ng/ul poly(dI/dC), 0.05% NP-40, 0.5 pmol labelled dsDNA (printed pmol/l), 3 ul E. coli extract in 20 ul, 40 min; protein in a lysate after overexpression; protein details: N-terminal His tag (pBAD/HisB)
[3] = system: PRDM9Cst (Mus musculus (CAST/EiJ)); assay: EMSA; conditions: 10 mM Tris pH 7.5, 50 mM KCl, 1 mM DTT, 50 ng/ul poly(dI/dC), 0.05% NP-40, 0.5 pmol labelled dsDNA (printed pmol/l), 3 ul E. coli extract in 20 ul, 40 min, protein in a lysate after overexpression, protein details: N-terminal His tag (pBAD/HisB)

“GAGAACTTACAAAGGTAGGACGTAAATGG (double strand) [Pbx1 29 bp]”: no binding [1].
“GAGAACTTACAAAGGTAGGACGTAAATGGAGTGTTTA (double strand) [Pbx1 37 bp]”: binds [1].
“ATAGTGTGCAGACTTGGACCCTGCCCTTTCTTT (double strand) [Hlx1 33 bp]”: binds [2].
“GAAATACTTTGCAAATATCAAGGCTCTAATACAAAT (double strand) [Esrrg-1 36 bp]”: binds [2].
“GTGGGAGGAGATGGTGGGTGAATAGTGTGCAGACTTGGACCCTGCCCTTTCTTTACGCATTCCACTAACCATGGG (double strand) [Hlx1 75 bp]”: binds ([3]; label: 3' biotin).
“ATCCAGGGAATAGAACTTTGACCATTACCC (double strand) [Psmb9 30 bp (30l) minimal]”: binds [2].
“TAGTGTGCAGACTTGGACCCTGCCCTTTCTTT (double strand) [Hlx1 32 bp]”: binds [2].
“AAAATTCTAGTAGTAGTGAAATACTTTGCAAATATCAAGGCTCTAATACAAATCCTACTGGCGACATACTTGGAAGAGTA (double strand) [Esrrg-1 80 bp]”: binds [3].
“CCAGGGAATAGAACTTTGACCATTA (double strand) [Psmb9 25 bp (25r)]”: no binding [2].
“CCAGGGAATAGAACTTTGACCATTACCC (double strand) [Psmb9 28 bp (28r)]”: no binding [2].
“GTGTGCAGACTTGGACCCTGCCCTTTCTTT (double strand) [Hlx1 30 bp]”: no binding [2].
“GGATCCAGGGAATAGAACTTTGACCATTACCC (double strand) [Psmb9 32 bp (32l)]”: binds [2].
“GAGAACTTACAAAGGTAGGACGTAAATGGAG (double strand) [Pbx1 31 bp]”: no binding [1].
“TGAATAGTGTGCAGACTTGGACCCTGCCCTTTCTTTACG (double strand) [Hlx1 39 bp]”: binds [2].
“GAGAACTTACAAAGGTAGGACGTAAATGGAGTGT (double strand) [Pbx1 34 bp minimal]”: binds [1].
“ATACTTTGCAAATATCAAGGCTCTAATACAAAT (double strand) [Esrrg-1 33 bp minimal]”: binds [2].
“GAGAACTTACAAAGGTAGGACGTAAATGGAGTG (double strand) [Pbx1 33 bp]”: no binding [1].
“ATGGAGAACTTACAAAGGTAGGACGTAAATGGAGTGTTTA (double strand) [Pbx1 40 bp]”: binds [1].
“ATACTTTGCAAATATCAAGGCTCTAATACA (double strand) [Esrrg-1 30 bp]”: no binding [2].
“AGTGTGCAGACTTGGACCCTGCCCTTTCTTT (double strand) [Hlx1 31 bp minimal]”: binds [2].
